{"source": "patent US20050287114A1", "about": "“Water-soluble polymeric bone-targeting drug delivery system” (University of Utah Research Foundation, priority 2003, published 2005)", "assay": "in vitro bone-targeting capacity: binding of conjugates to hydroxyapatite", "conditions": "conjugate 1 mg/mL in phosphate buffered saline, 5 mg HA, 1 h at R.T., UV absorbance of supernatant", "method": "All conjugates in Table 1 were screened in vitro for their bone-targeting capacity by the following procedure. Conjugates were dissolved in phosphate buffered saline to give a concentration of 1 mg/mL. The conjugate solution (100 μL) and 100 μL of the same buffer were incubated with 5 mg of hydroxyapatite (HA, Bio-Gel HTP, DNA grade; BIO-RAD, Hercules, Calif.) for 1 h at R.T. The solution was then centrifuged. The UV absorbance at certain wavelengths (FITC, 490 nm; 9-Gly-ATC, 450 nm) of the supernatant was monitored with an ELISA plate reader. Background correction was applied. The data presented is the average of three samples. The binding efficiency is expressed as the percentage of conjugates bound to HA (FIG. 4).", "data": [{"smiles": "NCCCC(O)(P(=O)(O)O)P(=O)(O)O", "note": "[Alendronate, reference compound]", "values": [{"measurement": "binding to HA (percentage of conjugates bound to HA)", "result": "slightly lower values"}]}]}
